The values that follow come from PMC3551867.

The data set deals with T1, GlyR2 (AraC/XylS family regulator).
T1 sequence (looked up): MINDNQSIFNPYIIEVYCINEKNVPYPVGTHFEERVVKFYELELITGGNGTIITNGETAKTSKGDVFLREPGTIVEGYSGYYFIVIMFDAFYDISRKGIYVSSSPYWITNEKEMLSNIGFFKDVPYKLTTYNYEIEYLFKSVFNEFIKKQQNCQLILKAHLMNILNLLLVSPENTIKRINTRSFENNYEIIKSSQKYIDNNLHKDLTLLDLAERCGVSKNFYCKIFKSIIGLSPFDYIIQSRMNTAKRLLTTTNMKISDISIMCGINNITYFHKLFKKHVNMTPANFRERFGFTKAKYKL
The experiment in a line: EMSA. To be noted: 10 ug sonicated herring sperm DNA, EMSA: 1x LightShift binding buffer (Pierce), 25-30 fmol probe, ~2 ug (57 pmol) GlyR2, recombinant protein, residues 1-300, protein details: C-terminal His6 (pET22b+, NdeI/XhoI), label: 3'-biotin, probe letters rebuilt from the primers and the genome.

Tags and fusion partners may be left off the protein sequences shown.

For “CAATTTCTAGTATTAATATAATGATAACACATATAGGTACTTCTGTGGTATAAGAATTTTTAATAATTGAGTAATATATTACAATTGAGTGCTATGTGACAATTGTATTCGAAGATGTCAGTTTATATAATTAAATTAGATAATATGTAAAATTAATACAGGGGGGATTTTTAATGAAAAAGATATTAGCACTGATTATATCGTGCAGTATTATTATGAGCTTTTTACCTATGTCTGTCTATGGTGCTATCAATTCTCAGGATATGGTAAAAAAGATGGGAATAGGAATGAACCTTGGAAATACGTTTGACGCACCAACGGAAGGTTCTTGGTCAAAGGCAGCTCAGGAGTACTATTTTGATGATTTTAAACAGGCCGGTTTCAAGCATGTTAGAATTCCAATCCGTTGGGATCAGCATACACTT (double strand) [PglyR2 probe (425 bp)]”, the binding result (100x unlabeled glyR2 probe competes) is reported as “binds”.

In the case of “GGCGTCGAACTGGAAAGTGCTTTTTAACATTATGAAAGAATAAAAATTAGTACTATTTAAATCCTAGTAAGGAAGATAGTATGATTAATGACAATCAATCAATATTTAATCCCTATATTATTGAGGTTTATTGCATCAACGAAAAAAATGTCCCCTATCCTGTAGGAACCCATTTTGAAGAGAGAGTTGTCAAGTTCTATGAGCTTGAACTAATTACAGGAGGAAATGGAACTATTATTACCAACGGTGAAACTGCTAAAACCTCAAAAGGAGATGTGTTTTTAAGAGAGCCCGGCACAATAGTTGAAGGATATTCTGGTTATTATTTTATTGTCATTATGTTTGACGCTTTTTATGATATATCCAGAAAAGGTATTTACGTAAGCTCTTCCCCTTATTGGATTACAAATG (double strand) [Pcel5D probe (411 bp)]”, the binding result (100x unlabeled cel5D probe competes) was “binds”.
